Values quoted from earlier work in patent US20040115261A1, “Controlled delivery of tetracycline compounds and tetracycline derivatives” (priority 2003, published 2004).
For at least one compound, name, drawing or mass did not settle the structure.

Conditions: based on steady-state pharmacokinetics, minimum antibiotic serum concentration = lowest concentration known to exert a significant antibiotic effect

Compound | plasma antibiotic threshold level [µg/mL]
C[C@H]1c2cccc(O)c2C(=O)C2=C(O)[C@]3(O)C(=O)C(C(N)=O)=C(O)[C@@H](N(C)C)[C@@H]3[C@@H](O)[C@@H]21 [doxycycline, 6α-deoxy-5-hydroxy-tetracycline] | 1.0
CN(C)c1ccc(O)c2c1C[C@H]1C[C@H]3[C@H](N(C)C)C(O)=C(C(N)=O)C(=O)[C@@]3(O)C(O)=C1C2=O [minocycline, 7-dimethylamino-tetracycline] | 0.8
